In the supplement of paper PMC5949888:
± gives the standard deviation of the averaged measurements. Most values lie at the floor of the assay. Slopes are relative: functional sequences can read slightly below zero.

The substances below were run on Saccharomyces cerevisiae PS128 hsf1 delta, HSF1(1-493) fusion (assay: growth estimate (transactivation domain function in HSF1 fusion, heat-shock survival) (a.u. (slope of normalised read count over time)); higher = stronger growth at 37°C, i.e. more transactivation activity). Settings: library: random library.

Substance | growth estimate
TKSRVNIETNYELAPDQTDY | < -0.25
TKTRLGARGVAVPAARKPIR | < -0.25
TKTVRSTRGLAFH | < -0.25
TKVEVGPRLPRLMSKIELCP | < -0.25
TKWLP | < -0.25
TLAYGRSPIFLRGLEGSLGL | < -0.25
TLCDRIE | < -0.25
TLCLSVTVSPL | < -0.25
TLCMYVGLMDPGRSPLRWG | < -0.25
TLCTVRLLLLNNDPGVLNWV | < -0.25
TLDLTDESAASKSTFHWHRP | < -0.25
TLDSPTSAPVPGSMAVTQRS | < -0.25
TLDVITLGVCCVPRCTSGRW | < -0.25
TLETLPLYITEIFAWLKAIH | < -0.25
TLFFGSSLVTDISEVPCVRP | < -0.25
TLFGCDRVSVSRRL | < -0.25
TLFTNRSGRGSYSLKSSLLC | < -0.25
TLGFPITGPATPTPGNLYTK | < -0.25
TLGPGSEQLKRVALEPGTAW | < -0.25
TLGVTNASSIVPKLGLNTHS | < -0.25
TLIAG | < -0.25
TLIVKRSGVF | < -0.25
TLLHPRGRGMLVLM | < -0.25
TLLNQEQWFRPLGLRRPFGA | < -0.25

Substance | growth estimate
TLLSEDRIRRADNLPFSGAS | < -0.25
TLLTPATGRECTSDLNIFVD | < -0.25
TLLTV | < -0.25
TLLVRGTHASMPEGVVIKLL | -0.25
TLNS | -0.239 ± 0.016
TLPKCCLYLNGIYITRAGRE | < -0.25
TLQCSYGG | < -0.25
TLRESARYCRVQFSYWSGDC | < -0.25
TLRGEDAKLFRTNVCPLVSP | < -0.25
TLRGGIARPHSETPLSENGP | < -0.25
TLRLSMCTWNKK | < -0.25
TLRVRRRVARSVCEGGSCGA | < -0.25
TLSGHLVFEPPIVSRTAHRW | < -0.25
TLSGIVTGLF | < -0.25
TLSGRAQSSRGNAVHRGCCY | < -0.25
TLSISK | < -0.25
TLSMVQMDIREGRYSRGASP | < -0.25
TLTGAWFALSHVRGSLHPGT | < -0.25
TLTKSRSHVTARNVMACCPD | < -0.25
TLTRLRQGPKLRAAAISEGP | < -0.25
TLTRVKSRRLEVTPHTN | < -0.25
TLVAY | < -0.25
TLVEALSGRSP | < -0.25
TLVGLVDGIATRARAYRRSP | < -0.25

Substance | growth estimate
TLVHIA | < -0.25
TLVLINRSSGPGVKEK | 0.263
TLVSALSMGSWGFHTGLGHS | < -0.25
TLVSNLASLLLYAHSSSSRP | < -0.25
TLWEADTSGGDVGP | < -0.25
TLWLPGLVPAIERQSWYQAC | < -0.25
TLYFMQDACDIRERKIAPGR | < -0.25
TLYGLQCDPRTRERLINLLH | -0.197
TLYKTVRGSPAP | -0.219
TMCLPNEVWPTILNKPLRVS | < -0.25
TMICGCRVAGPIHCTVAEWS | < -0.25
TMP | < -0.25
TMRLIG | < -0.25
TMRTEFPAIARWTLGRIA | < -0.25
TMRWSVYRLDVACWSISG | < -0.25
TMSCLDSRLELCLSTGRRQS | < -0.25
TMV | < -0.25
TMVHFRGP | < -0.25
TMVRHFVLRRSVKSWFVSRT | < -0.25
TMY | < -0.25
TNCKLPRPPGPPCLRCIQFH | < -0.25
TNCNLIPSEHLGSWPRQPWG | < -0.25
TNE | < -0.25
TNEDGVIGGYPHTASRLLAF | < -0.25

Substance | growth estimate
TNGLLWYSRTCLRSHPSSAV | < -0.25
TNGTGVIFELVSPTTGWSKC | < -0.25
TNH | < -0.25
TNIRDA | < -0.25
TNISRIVFANAACTRFSGGR | < -0.25
TNKR | < -0.25
TNQSPSAPHTGRQRNAHKSG | < -0.25
TNRKGSLFWLSPPVRGYSVM | < -0.25
TNRKPVNPIILNASEDTLTH | < -0.25
TNRSPTVYGGYTGDRYRASP | < -0.25
TNVYKRKHSHK | < -0.25
TNW | < -0.25
TPALELWGLTSAEAAHSRAI | < -0.25
TPAVVAWELSEK | < -0.25
TPCSGGEMPSLPRWRKWRTH | < -0.25
TPDGQMLCLTRARI | < -0.25
TPDGQWDTLQRFKPRPHLAR | < -0.25
TPGPVWGRPSLYSTKLGESM | < -0.25
TPGREIIPITSPVLRGRTKH | < -0.25
TPGSIYRQRRAGQASRY | < -0.25
TPHPSPGSGCSKSLILYIAM | < -0.25
TPIQDHASCWVRGSTLMIDA | < -0.25
TPKLAYLPAKSRCVNC | < -0.25
TPLLLFRVKA | < -0.25

Substance | growth estimate
TPLYVVLQL | < -0.25
TPNACDVNGQSHRPG | < -0.25
TPNDRRAPNDMVLRSVRVLG | < -0.25
TPNSST | < -0.25
TPPLF | < -0.25
TPRDKHAVIRFPVEEKCGRG | < -0.25
TPRYNQKG | < -0.25
TPSRKMAAHLSSRRGLSGTK | < -0.25
TPSTGHALVSASRCARGRDA | < -0.25
TPSWPKSIRLINKRRV | < -0.25
TPTGDSHARGICQSFSGSTY | < -0.25
TPVRKDAIGCVRSRSARRPC | < -0.25
TPVRKRWEYVYCEVIILVLR | < -0.25
TPYLEGQ | < -0.25
TPYQAGFGYLVLNVLHMYAA | < -0.25
TPYTLDVIGSFLRL | -0.208
TQAVRQVTLARLR | < -0.25
TQFP | < -0.25
TQGEIREFLRD | < -0.25
TQHTWPRLAQKHCMRGTGTF | < -0.25
TQKETWFSAVQLFCRRGVSE | < -0.25
TQLGRASWNLTYRYCTWTDL | < -0.25
TQLILTKDLARVS | < -0.25
TQQAIV | < -0.25

An excerpt from the list above, as a working copy:
Substance | growth estimate
TPYQAGFGYLVLNVLHMYAA | < -0.25
TPYTLDVIGSFLRL | -0.208
TQAVRQVTLARLR | < -0.25
TQFP | < -0.25
TQGEIREFLRD | < -0.25
TQHTWPRLAQKHCMRGTGTF | < -0.25
TQKETWFSAVQLFCRRGVSE | < -0.25

(continued)

Substance | growth estimate
TQQTTGLPSD | < -0.25
TQQYEHSPACACYLRGN | < -0.25
TQRFDRHRSSLLRPYLERCV | < -0.25
TQRGHDPLF | < -0.25
TQSVAISDNPGSQGY | < -0.25
TQTPSPVNR | < -0.25
TQTRWSTARPVRHK | < -0.25
TRARGMRPERPGCNNGSRGG | < -0.25
TRCMLPVYAGTR | < -0.25
TRCSRSLNGP | < -0.25
TRCT | < -0.25
TRDDLTCR | < -0.25
TRDQ | < -0.25
TRFENL | < -0.25
TRGQLHKALMNMMILWGPPF | < -0.25
TRGRGNRGGLRAWREIRHPS | < -0.25
TRGVFLVHSTPPLGEVTEPE | < -0.25
TRHFTAMRLVPWKLTAERRA | < -0.25
TRI | -0.245 ± 0.0065
TRII | < -0.25
TRILPHGDPIMERPTNGPST | < -0.25
TRLCFVTRVSAGRSPSPGAI | < -0.25
TRLEL | < -0.25

Shown tab-delimited: entries from further up
Substance	growth estimate
TRLCFVTRVSAGRSPSPGAI	< -0.25
TRLEL	< -0.25
